The test system of the series is P. aeruginosa PAO1. The series is described as follows: Untargeted NMR-based metabolomics, planktonic versus biofilm. Also noted: species or system Pseudomonas aeruginosa. Conditions: approximate.

As for `CC(=O)O` [Acetic acid], the “fold decrease of metabolite in biofilm” value was “three-fold”.
In the case of `CC(O)C(=O)O` (centres unmarked) [Lactic acid] it was “about 10 fold”.

These data come from US12332198B2, “Metabolite based diagnostics for periprosthetic joint infection” (priority 2022, dated 2025).
